The target in experiment [1] is microtubules of COS-7 cells expressing mCherry-α-tubulin (not stated | African green monkey (endogenous in COS-7)). The experiment is described as follows: live-cell confocal imaging of microtubule decoration.
For experiment [2] the target is unchanged. Kind of experiment: condition: only with 20 μM ZnCl2 and 2.5 μM pyrithione.

The text below walks through data of publication doi:10.1101/2021.12.02.470968.

Results are given in words; binding and its absence hold for the method and conditions named. For some of these results: Binding calls can cover weak binding; strength is not graded here. Where a sequence is shown, tags or fusion partners need not be part of it.

B1: EGFP-DCX (protein, UniProt O43602 1-365)
chain: MELDFGHFDERDKTSRNMRGSRMNGLPSPTHSAHCSFYRTRTLQALSNEKKAKKVRFYRNGDRYFKGIVYAVSSDRFRSFDALLADLTRSLSDNINLPQGVRYIYTIDGSRKIGSMDELEEGESYVCSSDNFFKKVEYTKNVNPNWSVNVKTSANMKAPQSLASSNSAQARENKDFVRPKLVTIIRSGVKPRKAVRVLLNKKTAHSFEQVLTDITEAIKLETGVVKKLYTLDGKQVTCLHDFFGDDDVFIACGPEKFRYAQDDFSLDENECRVMKGNPSATAGPKASPTPQKTSAKSPGPMRRSKSPADSGNDQDANGTSSSQLSTPKSKQSPISTPTSPGSLRKHKDLYLPLSLDDSDSLGDSM
Regarding B1, the binding result is on record as “binds” in experiment [1] and “no binding” in experiment [2].

B2: EGFP-MAP2C (protein, UniProt P11137-2 1-471)
chain: MADERKDEAKAPHWTSAPLTEASAHSHPPEIKDQGGAGEGLVRSANGFPYREDEEGAFGEHGSQGTYSNTKENGINGELTSADRETAEEVSARIVQVVTAEAVAVLKGEQEKEAQHKDQTAALPLAAEETANLPPSPPPSPASEQTVTVEEAAGGESALAPSVFKQAKDKVSDGVTKSPEKRSSLPRPSSILPPRRGVSGDRDENSFSLNSSISSSARRTTRSEPIRRAGKSGTSTPTTPGSTAITPGTPPSYSSRTPGTPGTPSYPRTPHTPGTPKSAILVPSEKKVAIIRTPPKSPATPKQLRLINQPLPDLKNVKSKIGSTDNIKYQPKGGQVQIVTKKIDLSHVTSKCGSLKNIRHRPGGGRVKIESVKLDFKEKAQAKVGSLDNAHHVPGGGNVKIDSQKLNFREHAKARVDHGAEIITQSPGRSSVASPRRLSNVSSSGSINLLESPQLATLAEDVTAALAKQGL
B2: the binding entry in experiment [1] is given as “binds”; in experiment [2] it was “no binding”.
